Results of single-concentration screens

Protein sequences, listed by entry. Tags and fused reporters are not part of them. Residues count along the entry.
UniProt Q4DA54, 1-478: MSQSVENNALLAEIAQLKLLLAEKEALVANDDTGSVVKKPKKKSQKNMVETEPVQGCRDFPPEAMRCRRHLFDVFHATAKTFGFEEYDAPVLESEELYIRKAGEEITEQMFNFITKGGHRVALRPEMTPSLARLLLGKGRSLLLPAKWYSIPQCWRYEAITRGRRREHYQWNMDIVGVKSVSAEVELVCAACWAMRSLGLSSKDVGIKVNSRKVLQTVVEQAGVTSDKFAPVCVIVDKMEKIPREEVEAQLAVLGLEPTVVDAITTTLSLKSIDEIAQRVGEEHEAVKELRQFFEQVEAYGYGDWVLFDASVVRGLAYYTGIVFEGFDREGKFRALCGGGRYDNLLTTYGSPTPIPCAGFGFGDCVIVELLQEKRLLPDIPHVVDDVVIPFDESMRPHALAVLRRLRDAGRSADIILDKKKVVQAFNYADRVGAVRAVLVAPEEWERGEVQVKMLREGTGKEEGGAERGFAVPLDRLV

Data taken from ChEMBL document CHEMBL3988442, “University of Dundee, Small-Polar-MMV Screening Library” (2021).

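Enzyme assay of histidyl-tRNA synthetase; the read-out is not stated. Target: Histidine-tRNA ligase, Trypanosoma cruzi CL Brener (UniProt Q4DA54). Tested at 30 µM. Direction is inferred from retests: higher values go with stronger inhibition. Of about 69,000 compounds tested this way, about 31 (0.045%) reached 50% or more in at least one test.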

Each number is a percent effect as filed. The controls that fix the scale are not given in the record; negative values are as filed. This is an unselected part of the compounds tested.

| # | compound | percent effect |
|---|---|---|
| 1 | `Cc1ccc(OC2(C(=O)O)CCN(C(=O)CCc3ccco3)CC2)cc1` | 3.004 |
| 2 | `CCc1ccsc1C(=O)NC(C#N)CC(C)C` (stereo not given) | 12.06 |
| 3 | `CC(C)n1ccnc1CN1CCCN(C(=O)c2cnc[nH]2)CC1` | 2.639 |
| 4 | `COCCNc1nc(-c2ccc(S(=O)(=O)N3CCCCC3)cc2)cs1` | 10.61 |
| 5 | `CNC(=O)[C@H]1C[C@@H]2CN(S(=O)(=O)c3ccc(F)cc3)C[C@@H]2N1C` | 0.9804 |
| 6 | `COCCNC(=O)Cn1c(-c2cccc(Cl)c2)nc(C)c(CCO)c1=O` | 17 |
| 7 | `Cc1ccc(CN2CCC3(CC(C(=O)NCC4CC4)=NO3)C2)s1` (stereo not given) | 0.4975 |
| 8 | `Cc1nnc(SCc2ccccn2)s1` | 3.468 |
| 9 | `Cc1nn(C)c(C)c1-c1cc(-c2cc(CC(=O)O)cs2)nc(N)c1C#N` | 3.509 |
| 10 | `NC(=O)C1CCN(C(=O)CCCc2nnc(-c3ccccc3)o2)C1` (stereo not given) | 1.729 |
| 11 | `O=C(CCN1C(=O)CCC1=O)Nc1ccc(Cl)cc1` | 8.046 |
| 12 | `COc1ncccc1C(=O)N1CCC(c2nnc(C3CC3)o2)CC1` | 5.435 |
| 13 | `O=C(NCc1nnc2n1C(C(=O)NC1CC1)CC2)c1ccc(Cl)cc1Cl` (stereo not given) | 1.775 |
| 14 | `CN(CC(=O)c1ccc2[nH]c(=O)[nH]c2c1)Cc1ccc2c(c1)OCO2` | 4.741 |
| 15 | `CCN1C[C@@H]2CN(C(=O)C3CC=CC3)C[C@@H]2C1=O` | 6.135 |
| 16 | `Cc1cc(CNC(=O)C2CCN(CC(N)=O)CC2)cc(C)n1` | -1.299 |
| 17 | `CS(=O)(=O)NC(=O)c1nnn(-c2cccc(F)c2)c1C1CC1` | 5.202 |
| 18 | `CN1[C@@H](C(=O)NCC2CC2)C[C@@H]2CN(c3ncccn3)C[C@@H]21` | -1.149 |
| 19 | `CCN1CCC(NC(=O)CN2CCCC2Cn2cncn2)CC1` (stereo not given) | 3.383 |
| 20 | `CC(NC(=O)NCCCOC1CCCCC1)c1nncn1C` (stereo not given) | -0.3831 |
| 21 | `Cc1ccccc1SCC(=O)NC1CCC(O)CC1` (stereo not given) | 0.5525 |
| 22 | `Cc1nn(C)c2c(NCc3ccccn3)nc(C(C)C)nc12` | 1.754 |
| 23 | `O=C1COC2(CCN(C(=O)c3ccoc3)CC2)CN1Cc1ccccn1` | 0.8 |
| 24 | `CCCn1cnc2c1CN(C(=O)c1ccc(F)cc1)[C@H](C(=O)OC)C2` | -5.473 |
| 25 | `COCC(c1cccc(C(F)(F)F)c1)N(C)C(=O)c1cnccn1` (stereo not given) | 8.284 |
| 26 | `CC(C)CN1CCC2(CCN(CC3CC3)CC2)C1=O` | 2.151 |
| 27 | `Cc1noc(C(C)C)c1C(=O)NCC(c1ccccc1)N(C)C` (stereo not given) | 5.814 |
| 28 | `Cc1cc(Br)c(O)c(C(=O)N2CCC(CN3CCCCCC3)CC2)c1` | 15.51 |
| 29 | `O=C1C[C@H]2CC[C@@H](CN1)N2C(=O)Cc1ccsc1` | 10.45 |
| 30 | `Cc1cc(CN2CCC(C3CCN(CCc4ccccc4)C3)CC2)[nH]n1` (stereo not given) | 19.75 |
| 31 | `COc1cc(-c2cc(OC)c(OC)c(OC)c2)ncn1` | 4.52 |
| 32 | `CCc1nc(CC(=O)N2CCCC2CN2CCCC2)cs1` (stereo not given) | -4.906 |
| 33 | `CN(CC1=CCCN(Cc2cccc(C#N)c2)C1)C(=O)c1ccco1` | 10.71 |
| 34 | `CN(C)c1ccc(C(=O)N2CCCC(n3cncn3)C2)nn1` (stereo not given) | 1.433 |
| 35 | `Cc1ncccc1Oc1ncnc(N2CCC(O)(CO)CC2)c1C` | 2.632 |
| 36 | `COc1cc(N(C)Cc2cc(C(C)(C)C)n[nH]2)ncn1` | 2.469 |
| 37 | `COc1ccc(-c2nnc([C@H]3CCN(C4CCC4)C3)o2)cc1` | 1.087 |
| 38 | `CCN(CC)Cc1cc(C(=O)N2CC(C)(C)[C@@](C)(O)C2)c(C)o1` | -1.478 |
| 39 | `O=C(NCCc1ccccc1)NCC(O)c1cccc(F)c1` (stereo not given) | 8.883 |
| 40 | `CCOCC1CC2(CCN(C(=O)c3ccccc3F)CC2)CO1` (stereo not given) | 3.825 |
| 41 | `COc1ccc(C(=O)N2CCC(Nc3cccnn3)CC2)c(OC)c1` | 2.632 |
| 42 | `CC(=O)NC1CCN(c2ncnc3c2c(C)nn3C)C1` (stereo not given) | 7.792 |
| 43 | `COCC(=O)N1CCC(Oc2cccc(C)c2)CC1` | 4.865 |
| 44 | `CCO[C@@H]1C[C@H]2CN(S(=O)(=O)c3cccs3)CCN2C1` | 3.448 |
| 45 | `COCc1noc(C2(c3ccc(Cl)cc3)CCOCC2)n1` | 3.941 |
| 46 | `CCc1nc(C)c(C2CC(=O)Nc3c2c(-c2ccccn2)nn3C)[nH]1` (stereo not given) | -2.703 |
| 47 | `O=C(NC1CCCC1)N1C[C@H]2CN(c3ccccn3)C[C@@]2(C(=O)O)C1` | 1.235 |
| 48 | `O=C1CC[C@]2(CC[C@@H](NC3CCOC3)CC2)N1Cc1ccccc1` (stereo not given in full) | 6.796 |
| 49 | `OCCC1CN(c2ncnc3[nH]cnc23)CCN1Cc1ccccc1` (stereo not given) | 11.11 |
| 50 | `O=C1CN(CCCNC(=O)Nc2ccccn2)CCN1` | 2.128 |
| 51 | `Cc1nc(NCc2ccccn2)c2c(n1)c(C)nn2C` | 3.509 |
| 52 | `CN(CCc1ccccc1)c1cnn(CC(=O)N2CCOCC2)c(=O)c1` | 0.5236 |
| 53 | `CCc1c(C)sc2c1c(N)nc(=O)n2CCN1CCCCC1` | 4.663 |
| 54 | `COc1ccccc1CNC(=O)COc1ccc2c(c1)OCC2O` (stereo not given) | -6.14 |
| 55 | `CC(C)=CCCC(C)CN1CCC(n2cc(C(C)(C)O)nn2)CC1` (stereo not given) | 2.116 |
| 56 | `CNC(=O)c1cc2c(nc1N(C)C)CCN(S(=O)(=O)CC(C)C)CC2` | -3.261 |
| 57 | `Cc1nc(-c2ccsc2)ccc1C(=O)N1CCn2c(C)nnc2C1` | 7.563 |
| 58 | `COc1ccccc1CCN1CCCC(CN(C)Cc2cc(C)n[nH]2)C1` (stereo not given) | -2.439 |
| 59 | `CCc1ncc2c(n1)CN(Cc1cnc(C)cn1)CC2` | 21.47 |
| 60 | `COCCN1CCO[C@H]2CN(C(=O)c3cccs3)C[C@H]21` | 3.681 |
| 61 | `Cc1cnc(C(=O)N2CCCC(n3cncn3)C2)cn1` (stereo not given) | 2.006 |
| 62 | `O=C1CCCc2[nH]c(=O)c(C(=O)N3CCc4ccccc4C3)cc21` | 6.25 |
| 63 | `Cc1occc1C(=O)N1CCCC2(CCN(c3ccccc3)C2=O)C1` (stereo not given) | 2.97 |
| 64 | `CCN(CC)CCNC(=O)CCc1c(C)nn(-c2cccc(Cl)c2)c1C` | 5.682 |
| 65 | `COCC1CCN(C(=O)c2cn(Cc3ccccc3C(F)(F)F)nn2)C1` (stereo not given) | 1.205 |
| 66 | `COc1ccc(C(=O)Nc2cnn(CC(=O)NC3CCCC3)c2)c(O)c1` | -4.132 |
| 67 | `COc1cccc(-c2noc(C3CCN(Cc4ccc(C)cc4)C3)n2)c1` (stereo not given) | 2.26 |
| 68 | `CC(C)n1cccc1C(=O)N1CC[C@@H](NC(=O)c2ccccn2)[C@H](O)C1` | 3.352 |
| 69 | `CCOc1ccc(Cl)c(C(=O)NC(Cc2ccccc2)C(N)=O)n1` (stereo not given) | 0 |
| 70 | `CC1(C)[C@H]2CC=C(CN3CCCn4nc(CCC(=O)O)cc4C3)[C@@H]1C2` | 12.14 |
| 71 | `O=C(CN1CCC(C(=O)c2cc(F)ccc2F)CC1)NC1CCCC1` | 3.261 |
| 72 | `COc1ccccc1CN1CCC(Cc2cnc(CN(C)C)cn2)CC1` | 10.34 |
| 73 | `Cn1cccc1C(=O)N1CCC(c2nnc(Cn3ccnc3)n2C)CC1` | 14.07 |
| 74 | `O=C(O)c1cccc(CC2CCN(c3cnccn3)CC2)c1` | 4.348 |
| 75 | `CC(NC1(CNS(=O)(=O)N(C)C)CCCC1)c1ccccc1` (stereo not given) | -0.9804 |
| 76 | `O=S(=O)(c1ccccc1)N1CCCC(c2nccs2)C1` (stereo not given) | 2.985 |
| 77 | `CCN(Cc1nc(COC)no1)Cc1cc2ccc(F)cc2[nH]c1=O` | 13.6 |
| 78 | `Cc1nn(C)c(N(C)C)c1CNCCC(=O)NC1CCCC1` | 5.202 |
| 79 | `CN(C)Cc1cnc2n1CCN(C(=O)Cc1ccsc1)CC2` | 7.595 |
| 80 | `CCCn1cc(-c2cc(-c3cnc(OC)nc3)c(C#N)c(N)n2)c(C)n1` | 8.8 |
| 81 | `Cc1cc(C)n(-c2ccc(C(C)NS(=O)(=O)CCCS(C)(=O)=O)cc2)n1` (stereo not given) | 4.202 |
| 82 | `CCN1CCCC12CCN(Cc1cccnc1OC)CC2` | 5.063 |
| 83 | `Cc1cnn(C2CCCN(C(=O)Cc3ccc(C)s3)C2)c1` (stereo not given) | 4.651 |
| 84 | `O=C(CN1C[C@H]2C[C@H](OCc3ccccc3)C[C@H]2C1)N1CCOCC1` | 14.94 |
| 85 | `Cc1cc(-c2nn(C)c(Cl)c2CN2CCN(C)C(C(=O)O)C2)no1` (stereo not given) | 2.041 |
| 86 | `O=C(NCCc1cc(F)ccc1F)NCC(O)C1CC1` (stereo not given) | 11.67 |
| 87 | `Cc1nc(CN(C)c2nccc(C(F)(F)F)n2)cs1` | 10.71 |

11 of the entries, repeated:

| compound | percent effect |
|---|---|
| `CNC(=O)[C@H]1C[C@@H]2CN(S(=O)(=O)c3ccc(F)cc3)C[C@@H]2N1C` | 0.9804 |
| `CCN(CC)CCNC(=O)CCc1c(C)nn(-c2cccc(Cl)c2)c1C` | 5.682 |
| `CC1(C)[C@H]2CC=C(CN3CCCn4nc(CCC(=O)O)cc4C3)[C@@H]1C2` | 12.14 |
| `COc1cccc(-c2noc(C3CCN(Cc4ccc(C)cc4)C3)n2)c1` (stereo not given) | 2.26 |
| `CCN(CC)Cc1cc(C(=O)N2CC(C)(C)[C@@](C)(O)C2)c(C)o1` | -1.478 |
| `COCC(c1cccc(C(F)(F)F)c1)N(C)C(=O)c1cnccn1` (stereo not given) | 8.284 |
| `Cc1noc(C(C)C)c1C(=O)NCC(c1ccccc1)N(C)C` (stereo not given) | 5.814 |
| `COc1ccccc1CN1CCC(Cc2cnc(CN(C)C)cn2)CC1` | 10.34 |
| `Cc1nn(C)c(C)c1-c1cc(-c2cc(CC(=O)O)cs2)nc(N)c1C#N` | 3.509 |
| `CCc1nc(C)c(C2CC(=O)Nc3c2c(-c2ccccn2)nn3C)[nH]1` (stereo not given) | -2.703 |
| `O=C(O)c1cccc(CC2CCN(c3cnccn3)CC2)c1` | 4.348 |